Experimental data taken from US20090081195A1, “Inhibitors of Ste20-like Kinase (SLK) and Methods of Modulating Cell Cycle Progression and Cell Motility” (OTTAWA HEALTH RESEARCH INSTITUTE, priority 2005, published 2009).
These are yes or no findings as the source states them, for the method shown. For some assays here: Binding seen in cells or lysates may run through a third protein. Some entries that bind do so weakly or less than the wild type. For some assays here: Sequences can lack the tags named with a protein. One block for each binder: values may come before it.

Sequences of proteins named here, by UniProt entry; tags and fusion partners are left off. A change or cut given only in a name is not applied to a line headed by its entry.
UniProt O54988: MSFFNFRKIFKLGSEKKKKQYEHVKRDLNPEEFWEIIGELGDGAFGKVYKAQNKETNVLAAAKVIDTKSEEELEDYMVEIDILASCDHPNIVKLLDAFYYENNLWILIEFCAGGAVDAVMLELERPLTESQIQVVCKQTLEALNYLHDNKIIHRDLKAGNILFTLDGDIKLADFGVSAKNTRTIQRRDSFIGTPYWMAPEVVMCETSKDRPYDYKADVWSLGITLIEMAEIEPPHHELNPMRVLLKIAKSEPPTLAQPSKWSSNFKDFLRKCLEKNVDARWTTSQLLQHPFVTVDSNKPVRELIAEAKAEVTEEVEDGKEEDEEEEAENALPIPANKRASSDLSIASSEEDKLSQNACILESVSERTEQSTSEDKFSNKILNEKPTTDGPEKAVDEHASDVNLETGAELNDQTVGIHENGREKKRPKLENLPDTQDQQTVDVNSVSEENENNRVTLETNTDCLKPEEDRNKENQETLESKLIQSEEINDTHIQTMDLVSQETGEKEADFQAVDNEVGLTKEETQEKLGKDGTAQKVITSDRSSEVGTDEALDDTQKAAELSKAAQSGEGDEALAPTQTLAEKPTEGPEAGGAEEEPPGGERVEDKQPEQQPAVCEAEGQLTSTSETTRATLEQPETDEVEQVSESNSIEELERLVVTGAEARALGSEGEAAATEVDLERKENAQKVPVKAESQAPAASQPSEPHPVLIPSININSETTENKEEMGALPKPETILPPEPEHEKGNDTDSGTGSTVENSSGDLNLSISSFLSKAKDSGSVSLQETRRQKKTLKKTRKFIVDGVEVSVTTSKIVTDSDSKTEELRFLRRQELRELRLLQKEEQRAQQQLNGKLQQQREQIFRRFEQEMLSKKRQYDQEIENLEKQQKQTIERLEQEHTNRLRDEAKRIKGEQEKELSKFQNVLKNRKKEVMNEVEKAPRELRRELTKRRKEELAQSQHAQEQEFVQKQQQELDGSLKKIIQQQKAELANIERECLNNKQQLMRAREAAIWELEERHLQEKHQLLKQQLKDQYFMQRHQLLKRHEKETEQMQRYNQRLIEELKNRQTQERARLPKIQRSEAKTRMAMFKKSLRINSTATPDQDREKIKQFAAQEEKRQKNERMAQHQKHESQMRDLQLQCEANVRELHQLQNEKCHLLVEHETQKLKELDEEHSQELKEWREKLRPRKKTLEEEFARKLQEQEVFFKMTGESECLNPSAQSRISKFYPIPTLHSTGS

Tests used:
[1] = target: GST-ATH N-terminus (murine) (UniProt O54988); test: GST pulldown of [35S]-labeled in vitro translated Ldb2
GST-SLK 1-950 (murine) = GST-SLK 1-950 (murine) (UniProt O54988); test: GST pulldown of [35S]-labeled in vitro translated Ldb2, SDS-PAGE and autoradiography
[2] = target: GST-SLK 950-1202 (GST-tagged SLK ATH domain) (murine) (UniProt O54988); test: as above
[3] = target: Myc-SLK 373-1202 (murine) (UniProt O54988); test: co-immunoprecipitation from co-transfected HEK 293 cells (anti-HA 12CA5 IP, anti-Myc 9E10 blot)
[4] = target: Myc-SLK 950-1202 (murine) (UniProt O54988); test: as above
[5] = target: Myc-SLK 373-1202 (murine) (UniProt O54988); test: co-immunoprecipitation from co-transfected HEK 293 cells (anti-HA IP, anti-Myc blot)
[6] = target: Myc-SLK 950-1202 (murine) (UniProt O54988); test: as above
[7] = target: GST-SLK 950-1202 (GST-tagged SLK ATH domain) (murine) (UniProt O54988); test: GST pulldown of [35S]-labeled in vitro translated Ldb1
[8] = target: GST-ATH N-terminus (murine) (UniProt O54988); test: GST pulldown of in vitro translated Ldb1 with GST-MNAP-C, GST-ATH-N, GST-ATH-C
[9] = target: endogenous SLK (mouse (MEFs); rat (primary cortical neurons)) (UniProt O54988); test: IP-western of endogenous proteins from MEFs, primary neurons, N1E 115 cells (both directions)
[10] = target: endogenous SLK (mouse (MEFs); rat (primary cortical neurons)) (UniProt O54988); test: IP-Western (FIG. 11B)
[11] = target: endogenous SLK (mouse (MEFs); rat (primary cortical neurons)) (UniProt O54988); test: IP-western of endogenous proteins
[12] = target: HA-SLK (full length) (murine) (UniProt O54988); test: reciprocal co-immunoprecipitation
[13] = target: Myc-SLK 373-1202 (murine) (UniProt O54988); test: co-immunoprecipitation from co-transfected cells
[14] = target: Myc-SLK 950-1202 (murine) (UniProt O54988); test: co-immunoprecipitation from co-transfected cells
[15] = target: T1, Ldb2 (construct not stated) (mouse) (UniProt O55203); test: co-immunoprecipitation of tagged proteins
T1 sequence (looked up): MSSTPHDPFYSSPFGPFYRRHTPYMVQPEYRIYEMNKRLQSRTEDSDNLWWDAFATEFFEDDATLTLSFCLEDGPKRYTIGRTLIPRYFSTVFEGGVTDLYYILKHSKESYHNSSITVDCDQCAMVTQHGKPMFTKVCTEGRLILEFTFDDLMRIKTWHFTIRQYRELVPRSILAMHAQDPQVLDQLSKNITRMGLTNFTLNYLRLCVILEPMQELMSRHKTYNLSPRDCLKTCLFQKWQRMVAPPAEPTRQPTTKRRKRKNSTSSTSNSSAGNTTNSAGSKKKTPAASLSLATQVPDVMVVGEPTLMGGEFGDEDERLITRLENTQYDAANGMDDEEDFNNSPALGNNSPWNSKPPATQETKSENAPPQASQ

[16] = target: SLK (construct not stated) (murine) (UniProt O54988); test: binding assays of FIG. 11

B1: in vitro translated [35S]-labeled Ldb2 (protein, mouse, UniProt O55203 1-373, looked up)
chain: T1 sequence (looked up)
modifications: [35S]-methionine label
- binding [1]: binds
- binding (GST-SLK 1-950 (murine)): binds
- binding [2]: binds

B2: HA-tagged Ldb2 (protein, mouse, UniProt O55203 1-373, looked up, not shown: small tags and cut ends)
chain: T1 sequence (looked up)
- binding [3]: binds
- binding [4]: binds
- binding [5]: binds
- binding [6]: binds

B3: in vitro translated [35S]-labeled Ldb1 (protein, mouse, UniProt P70662-3 1-375, looked up)
chain: MLDRDVGPTPMYPPTYLEPGIGRHTPYGNQTDYRIFELNKRLQNWTEECDNLWWDAFTTEFFEDDAMLTITFCLEDGPKRYTIGRTLIPRYFRSIFEGGATELYYVLKHPKEAFHSNFVSLDCDQGSMVTQHGKPMFTQVCVEGRLYLEFMFDDMMRIKTWHFSIRQHRELIPRSILAMHAQDPQMLDQLSKNITRCGLSNSTLNYLRLCVILEPMQELMSRHKTYSLSPRDCLKTCLFQKWQRMVAPPAEPARQQPSKRRKRKMSGGSTMSSGGGNTNNSNSKKKSPASTFALSSQVPDVMVVGEPTLMGGEFGDEDERLITRLENTQFDAANGIDDEDSFNNSPALGANSPWNSKPPSSQESKSENPTSQASQ
modifications: [35S]-methionine label
- binding [7]: binds
- binding [8]: binds

B6: HA-tagged Ldb1 (protein, mouse, UniProt P70662-3 1-375, looked up, not shown: small tags and cut ends)
chain: B3 chain
- binding [13]: binds
- binding [14]: binds

More lines, now with the values ahead:

- binding [9]: binds
- binding [10]: binds
- binding [11]: binds
B4: endogenous Ldb1 (protein, UniProt P70662-3 1-375, looked up)
chain: B3 chain

- binding [12]: binds
B5: Myc-Ldb1 (protein, mouse, UniProt P70662-3 1-375, looked up, not shown: small tags and cut ends)
chain: B3 chain

- binding [15]: binds
- binding [16]: binds
B7: Ldb1 (construct not stated) (protein, mouse, UniProt P70662-3 1-375, looked up)
chain: B3 chain
